# Data: the supplement of paper PMC8728848
# The list shows a part of the results.
# What was measured:
# Test in all cases: glycan array binding signal (z-score within array); higher = stronger binding
# Conditions in all cases: glycan notation: IUPAC condensed, linker removed
# [1] = molecular target: Neu5Ac(a2-6)Gal(b1-4)GlcNAc(b1-3)Gal(b1-4)GlcNAc(b1-3)Gal(b1-4)GlcNAc(b1-2)Man(a1-3)[Neu5Ac(a2-6)Gal(b1-4)GlcNAc(b1-3)Gal(b1-4)GlcNAc(b1-3)Gal(b1-4)GlcNAc(b1-2)Man(a1-6)]GalNAc
# Procedure, shortened: (§1)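 Arrays were curated from the Consortium for Functional Glycomics database, 3228 in total, and kept only where the protein sequence was available. Binding is expressed as a within-array Z-score. This score was averaged across arrays of the same protein sequence at different concentrations or buffers and across linkers, and negative values can be read as non-binding.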
# [2] = molecular target: Neu5Ac(a2-6)Gal(b1-4)GlcNAc(b1-3)Gal(b1-4)GlcNAc(b1-3)GalNAc
# Procedure, shortened: as §1
# [3] = molecular target: Neu5Ac(a2-6)Gal(b1-4)GlcNAc(b1-3)Gal(b1-4)GlcNAc(b1-3)[Neu5Ac(a2-6)Gal(b1-4)GlcNAc(b1-3)Gal(b1-4)GlcNAc(b1-6)]GalNAc
# Procedure, shortened: as §1
# [4] = molecular target: Neu5Ac(a2-6)Gal(b1-4)GlcNAc(b1-3)Gal(b1-4)GlcNAc(b1-6)[Gal(b1-3)]GalNAc
# Procedure, shortened: as §1
# [5] = molecular target: Neu5Ac(a2-6)Gal(b1-4)GlcNAc(b1-3)Gal(b1-4)[Fuc(a1-3)]GlcNAc(b1-3)Gal(b1-4)[Fuc(a1-3)]GlcNAc
# Procedure, shortened: as §1
# [6] = molecular target: Neu5Ac(a2-6)Gal(b1-4)GlcNAc(b1-3)GalNAc
# Procedure, shortened: as §1
# [7] = molecular target: Neu5Ac(a2-6)Gal(b1-4)GlcNAc(b1-3)[Neu5Ac(a2-6)Gal(b1-4)GlcNAc(b1-6)]GalNAc
# Procedure, shortened: as §1
# [8] = molecular target: Neu5Ac(a2-6)Gal(b1-4)GlcNAc(b1-6)GalNAc
# Procedure, shortened: as §1
# [9] = molecular target: Neu5Ac(a2-6)Gal(b1-4)GlcNAc(b1-6)[Gal(b1-3)GlcNAc(b1-3)]Gal(b1-4)Glc
# Procedure, shortened: as §1
# [10] = molecular target: Neu5Ac(a2-6)Gal(b1-4)GlcNAc(b1-6)[Gal(b1-3)]GalNAc
# Procedure, shortened: as §1
# [11] = molecular target: Neu5Ac(a2-6)Gal(b1-4)GlcNAc6S
# Procedure, shortened: as §1
# Neu5Ac(a2-6)GalNAc = molecular target: Neu5Ac(a2-6)GalNAc
# Procedure, shortened: as §1
# [12] = molecular target: Neu5Ac(a2-6)GalNAc(b1-4)GlcNAc
# Procedure, shortened: as §1
# [13] = molecular target: Neu5Ac(a2-6)GalNAc(b1-4)GlcNAc6S
# Procedure, shortened: as §1
# [14] = molecular target: Neu5Ac(a2-6)GlcNAc(b1-4)GlcNAc
# Procedure, shortened: as §1
# [15] = molecular target: Neu5Ac(a2-6)GlcNAc(b1-4)GlcNAc(b1-4)GlcNAc
# Procedure, shortened: as §1
# Neu5Ac(a2-8)Neu5Ac = molecular target: Neu5Ac(a2-8)Neu5Ac
# Procedure, shortened: as §1
# [16] = molecular target: Neu5Ac(a2-8)Neu5Ac(a2-3)Gal(b1-3)GalNAc(b1-4)[Neu5Ac(a2-3)]Gal(b1-4)Glc
# Procedure, shortened: as §1
# [17] = molecular target: Neu5Ac(a2-8)Neu5Ac(a2-3)Gal(b1-3)GalNAc(b1-4)[Neu5Ac(a2-8)Neu5Ac(a2-3)]Gal(b1-4)Glc
# Procedure, shortened: as §1
# [18] = molecular target: Neu5Ac(a2-8)Neu5Ac(a2-3)Gal(b1-4)Glc
# Procedure, shortened: as §1
# [19] = molecular target: Neu5Ac(a2-8)Neu5Ac(a2-3)Gal(b1-4)GlcNAc
# Procedure, shortened: as §1
# [20] = molecular target: Neu5Ac(a2-8)Neu5Ac(a2-3)[Gal(b1-3)GalNAc(b1-4)]Gal(b1-4)Glc
# Procedure, shortened: as §1
# [21] = molecular target: Neu5Ac(a2-8)Neu5Ac(a2-3)[GalNAc(b1-4)]Gal(b1-4)Glc
# Procedure, shortened: as §1
# [22] = molecular target: Neu5Ac(a2-8)Neu5Ac(a2-8)Neu5Ac
# Procedure, shortened: as §1
# [23] = molecular target: Neu5Ac(a2-8)Neu5Ac(a2-8)Neu5Ac(a2-3)Gal(b1-4)Glc
# Procedure, shortened: as §1
# [24] = molecular target: Neu5Ac(a2-8)Neu5Ac(a2-8)Neu5Ac(a2-3)[Gal(b1-3)GalNAc(b1-4)]Gal(b1-4)Glc
# Procedure, shortened: as §1
# [25] = molecular target: Neu5Ac(a2-8)Neu5Ac(a2-8)Neu5Ac(a2-3)[GalNAc(b1-4)]Gal(b1-4)Glc
# Procedure, shortened: as §1
# [26] = molecular target: Neu5Ac(a2-8)Neu5Ac(a2-8)Neu5Ac(a2-8)Neu5Ac(a2-3)[GalNAc(b1-4)]Gal(b1-4)Glc
# Procedure, shortened: as §1
# [27] = molecular target: Neu5Ac(a2-8)Neu5Gc(a2-3)Gal(b1-4)GlcNAc
# Procedure, shortened: as §1
# [28] = molecular target: Neu5Ac(b2-6)Gal(b1-4)GlcNAc
# Procedure, shortened: as §1
# Neu5Ac(b2-6)GalNAc = molecular target: Neu5Ac(b2-6)GalNAc
# Procedure, shortened: as §1
# [29] = molecular target: Neu5Ac9Ac(a2-3)Gal(b1-3)GlcNAc
# Procedure, shortened: as §1
# [30] = molecular target: Neu5Ac9Ac(a2-3)Gal(b1-4)GlcNAc
# Procedure, shortened: as §1
# [31] = molecular target: Neu5Ac9Ac(a2-6)Gal(b1-4)GlcNAc
# Procedure, shortened: as §1
# [32] = molecular target: Neu5Gc(a2-3)Gal(b1-3)GlcNAc
# Procedure, shortened: as §1
# [33] = molecular target: Neu5Gc(a2-3)Gal(b1-3)[Fuc(a1-4)]GlcNAc
# Procedure, shortened: as §1
# Neu5Gc(a2-3)Gal(b1-4)Glc = molecular target: Neu5Gc(a2-3)Gal(b1-4)Glc
# Procedure, shortened: as §1
# [34] = molecular target: Neu5Gc(a2-3)Gal(b1-4)GlcNAc
# Procedure, shortened: as §1
# [35] = molecular target: Neu5Gc(a2-3)Gal(b1-4)GlcNAc(b1-3)Gal(b1-4)GlcNAc(b1-2)Man(a1-3)[Neu5Gc(a2-3)Gal(b1-4)GlcNAc(b1-3)Gal(b1-4)GlcNAc(b1-2)Man(a1-6)]Man(b1-4)GlcNAc(b1-4)GlcNAc
# Procedure, shortened: as §1
# [36] = molecular target: Neu5Gc(a2-3)Gal(b1-4)[Fuc(a1-3)]GlcNAc
# Procedure, shortened: as §1
# [37] = molecular target: Neu5Gc(a2-6)Gal(b1-4)GlcNAc
# Procedure, shortened: as §1
# Neu5Gc(a2-6)GalNAc = molecular target: Neu5Gc(a2-6)GalNAc
# Procedure, shortened: as §1
# [38] = molecular target: Neu5Gc(a2-8)Neu5Ac(a2-3)Gal(b1-4)GlcNAc
# Procedure, shortened: as §1
# [39] = molecular target: Neu5Gc(a2-8)Neu5Gc(a2-3)Gal(b1-4)GlcNAc
# Procedure, shortened: as §1
# [40] = molecular target: Neu5Gc(a2-8)Neu5Gc(a2-3)Gal(b1-4)GlcNAc(b1-3)Gal(b1-4)GlcNAc
# Procedure, shortened: as §1
# [41] = molecular target: Neu5Gc(a2-8)Neu5Gc(a2-6)Gal(b1-4)GlcNAc
# Procedure, shortened: as §1
# [42] = molecular target: Neu5Gc(b2-6)Gal(b1-4)GlcNAc
# Procedure, shortened: as §1
binder,measurement,setting,value
"SHCBP1-GST (Homo sapiens), Q8NEM2 (protein) MADGSLTGGGLEAAAMAPERMGWAVEQELASLEKGLFQDEDSCSDCSYRDKPGSSLQSFMPEGKTFFPEIFQTNQLLFYERFRAYQDYILADCKASEVQEFTAEFLEKVLEPSGWRAVWHTNVFKVLVEITDVDFAALKAVVRLAEPYLCDSQVSTFTMECMKELLDLKEHRLPLQELWVVFDDSGVFDQTALAIEHVRFFYQNIWRSWDEEEEDEYDYFVRCVEPRLRLHYDILEDRVPSGLIVDYHNLLSQCEESYRKFLNLRSSLSNCNSDSEQENISMVEGLKLYSEMEQLKQKLKLIENPLLRYVFGYQKNSNIQAKGVRSSGQKITHVVSSTMMAGLLRSLLTDRLCQEPGEEEREIQFHSDPLSAINACFEGDTVIVCPGHYVVHGTFSIADSIELEGYGLPDDIVIEKRGKGDTFVDCTGADIKISGIKFVQHDAVEGILIVHRGKTTLENCVLQCETTGVTVRTSAEFLMKNSDLYGAKGAGIEIYPGSQCTLSDNGIHHCKEGILIKDFLDEHYDIPKISMVNNIIHNNEGYGVVLVKPTIFSDLQENAEDGTEENKALKIQTSGEPDVAERVDLEELIECATGKMELCARTDPSEQVEGNCEIVNELIAASTQKGQIKKKRLSELGITQADDNLMSQEMFVGIVGNQFKWNGKGSFGTFLF",glycan array binding signal (z-score),[1],2.65
same,glycan array binding signal (z-score),[2],-0.755
same,glycan array binding signal (z-score),[3],-0.278
same,glycan array binding signal (z-score),[4],-0.375
same,glycan array binding signal (z-score),[5],0.324
same,glycan array binding signal (z-score),[6],2.41
same,glycan array binding signal (z-score),[7],-0.196
same,glycan array binding signal (z-score),[8],-0.322
same,glycan array binding signal (z-score),[9],-0.621
same,glycan array binding signal (z-score),[10],-1.17
same,glycan array binding signal (z-score),[11],-0.261
same,glycan array binding signal (z-score),Neu5Ac(a2-6)GalNAc,-0.726
same,glycan array binding signal (z-score),[12],-1.02
same,glycan array binding signal (z-score),[13],0.128
same,glycan array binding signal (z-score),[14],-0.776
same,glycan array binding signal (z-score),[15],0.48
same,glycan array binding signal (z-score),Neu5Ac(a2-8)Neu5Ac,0.075
same,glycan array binding signal (z-score),[16],-0.239
same,glycan array binding signal (z-score),[17],-0.396
same,glycan array binding signal (z-score),[18],0.359
same,glycan array binding signal (z-score),[19],-0.54
same,glycan array binding signal (z-score),[20],-0.848
same,glycan array binding signal (z-score),[21],-0.847
same,glycan array binding signal (z-score),[22],-0.151
same,glycan array binding signal (z-score),[23],-0.473
same,glycan array binding signal (z-score),[24],-0.149
same,glycan array binding signal (z-score),[25],0.386
same,glycan array binding signal (z-score),[26],0.231
same,glycan array binding signal (z-score),[27],-0.244
same,glycan array binding signal (z-score),[28],-0.65
same,glycan array binding signal (z-score),Neu5Ac(b2-6)GalNAc,-0.581
same,glycan array binding signal (z-score),[29],-0.964
same,glycan array binding signal (z-score),[30],-0.56
same,glycan array binding signal (z-score),[31],-0.135
same,glycan array binding signal (z-score),[32],-0.042
same,glycan array binding signal (z-score),[33],0.247
same,glycan array binding signal (z-score),Neu5Gc(a2-3)Gal(b1-4)Glc,-0.781
same,glycan array binding signal (z-score),[34],-0.692
same,glycan array binding signal (z-score),[35],0.71
same,glycan array binding signal (z-score),[36],0.014
same,glycan array binding signal (z-score),[37],-0.426
same,glycan array binding signal (z-score),Neu5Gc(a2-6)GalNAc,0.53
same,glycan array binding signal (z-score),[38],-0.164
same,glycan array binding signal (z-score),[39],-0.869
same,glycan array binding signal (z-score),[40],-0.177
same,glycan array binding signal (z-score),[41],0.341
same,glycan array binding signal (z-score),[42],0.55

# A portion from the list above, as a working copy:
binder,measurement,setting,value
"SHCBP1-GST (Homo sapiens), Q8NEM2 (protein) MADGSLTGGGLEAAAMAPERMGWAVEQELASLEKGLFQDEDSCSDCSYRDKPGSSLQSFMPEGKTFFPEIFQTNQLLFYERFRAYQDYILADCKASEVQEFTAEFLEKVLEPSGWRAVWHTNVFKVLVEITDVDFAALKAVVRLAEPYLCDSQVSTFTMECMKELLDLKEHRLPLQELWVVFDDSGVFDQTALAIEHVRFFYQNIWRSWDEEEEDEYDYFVRCVEPRLRLHYDILEDRVPSGLIVDYHNLLSQCEESYRKFLNLRSSLSNCNSDSEQENISMVEGLKLYSEMEQLKQKLKLIENPLLRYVFGYQKNSNIQAKGVRSSGQKITHVVSSTMMAGLLRSLLTDRLCQEPGEEEREIQFHSDPLSAINACFEGDTVIVCPGHYVVHGTFSIADSIELEGYGLPDDIVIEKRGKGDTFVDCTGADIKISGIKFVQHDAVEGILIVHRGKTTLENCVLQCETTGVTVRTSAEFLMKNSDLYGAKGAGIEIYPGSQCTLSDNGIHHCKEGILIKDFLDEHYDIPKISMVNNIIHNNEGYGVVLVKPTIFSDLQENAEDGTEENKALKIQTSGEPDVAERVDLEELIECATGKMELCARTDPSEQVEGNCEIVNELIAASTQKGQIKKKRLSELGITQADDNLMSQEMFVGIVGNQFKWNGKGSFGTFLF",glycan array binding signal (z-score),[21],-0.847
same,glycan array binding signal (z-score),[22],-0.151
same,glycan array binding signal (z-score),[23],-0.473
